Consider five substances from article PMC11482519.

The chains behind the UniProt entries cited, without tags or fusion partners. Where a name states a change or a piece, a line headed by the entry shows the natural chain unless it says otherwise. Residues count along the entry.
UniProt Q93009: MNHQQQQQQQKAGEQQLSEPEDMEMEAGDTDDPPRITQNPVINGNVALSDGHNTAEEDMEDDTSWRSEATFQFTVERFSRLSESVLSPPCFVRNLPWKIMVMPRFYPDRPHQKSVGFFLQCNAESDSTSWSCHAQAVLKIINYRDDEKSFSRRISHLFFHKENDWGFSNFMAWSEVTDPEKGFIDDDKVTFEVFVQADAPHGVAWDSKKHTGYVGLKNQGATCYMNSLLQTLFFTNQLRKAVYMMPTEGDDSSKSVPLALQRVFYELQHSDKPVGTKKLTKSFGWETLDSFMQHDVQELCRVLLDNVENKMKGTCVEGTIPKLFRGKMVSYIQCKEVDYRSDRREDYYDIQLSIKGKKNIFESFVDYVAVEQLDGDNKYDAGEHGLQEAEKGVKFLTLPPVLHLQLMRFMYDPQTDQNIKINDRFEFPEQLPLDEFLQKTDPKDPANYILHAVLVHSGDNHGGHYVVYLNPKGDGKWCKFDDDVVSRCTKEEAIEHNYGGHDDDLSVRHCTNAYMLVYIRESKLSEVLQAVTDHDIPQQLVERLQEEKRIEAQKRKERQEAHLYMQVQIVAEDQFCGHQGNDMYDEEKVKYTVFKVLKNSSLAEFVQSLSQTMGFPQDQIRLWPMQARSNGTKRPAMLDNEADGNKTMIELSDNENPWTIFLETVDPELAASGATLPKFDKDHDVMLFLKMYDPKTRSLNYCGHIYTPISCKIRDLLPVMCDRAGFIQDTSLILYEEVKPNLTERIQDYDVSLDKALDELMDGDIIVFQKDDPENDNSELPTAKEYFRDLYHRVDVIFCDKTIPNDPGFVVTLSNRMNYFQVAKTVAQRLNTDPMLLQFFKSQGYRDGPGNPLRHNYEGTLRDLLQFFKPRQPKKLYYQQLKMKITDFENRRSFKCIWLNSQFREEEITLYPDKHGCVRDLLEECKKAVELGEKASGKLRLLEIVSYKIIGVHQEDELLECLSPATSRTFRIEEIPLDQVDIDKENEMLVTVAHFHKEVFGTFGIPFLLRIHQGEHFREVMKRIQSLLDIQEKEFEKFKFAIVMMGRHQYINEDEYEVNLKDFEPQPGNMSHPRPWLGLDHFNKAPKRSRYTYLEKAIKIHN
Flag-USP7 (1-206 aa): residues 1-206 of Q93009
UniProt Q99814: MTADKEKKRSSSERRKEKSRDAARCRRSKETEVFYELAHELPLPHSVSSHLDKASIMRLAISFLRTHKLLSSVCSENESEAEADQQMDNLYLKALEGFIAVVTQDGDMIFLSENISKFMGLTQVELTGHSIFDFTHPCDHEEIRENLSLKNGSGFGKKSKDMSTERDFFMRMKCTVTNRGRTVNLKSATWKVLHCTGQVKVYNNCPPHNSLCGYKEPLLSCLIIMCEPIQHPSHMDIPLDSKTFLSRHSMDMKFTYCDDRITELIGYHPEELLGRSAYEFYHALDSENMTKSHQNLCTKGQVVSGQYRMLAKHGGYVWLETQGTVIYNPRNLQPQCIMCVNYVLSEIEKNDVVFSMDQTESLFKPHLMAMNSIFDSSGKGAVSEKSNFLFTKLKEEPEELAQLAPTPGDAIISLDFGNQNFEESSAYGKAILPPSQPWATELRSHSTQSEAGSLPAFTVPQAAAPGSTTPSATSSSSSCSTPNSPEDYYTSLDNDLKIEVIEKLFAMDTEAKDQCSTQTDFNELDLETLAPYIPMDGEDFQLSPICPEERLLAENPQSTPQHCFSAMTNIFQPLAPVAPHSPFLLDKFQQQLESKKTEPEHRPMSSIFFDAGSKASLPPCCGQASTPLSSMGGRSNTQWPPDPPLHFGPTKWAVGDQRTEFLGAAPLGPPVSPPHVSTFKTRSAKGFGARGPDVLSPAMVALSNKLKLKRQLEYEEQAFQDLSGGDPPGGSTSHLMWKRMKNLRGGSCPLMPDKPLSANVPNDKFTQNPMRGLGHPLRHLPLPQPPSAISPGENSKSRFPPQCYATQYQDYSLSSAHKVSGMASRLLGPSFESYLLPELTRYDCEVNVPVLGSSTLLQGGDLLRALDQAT

For experiment [1], the target named is HA-USP7 (Ubiquitin-Specific Peptidase 7) (UniProt Q93009). Nature of the experiment: co-IP; 293T cells co-transfected with Flag- and HA-tagged constructs; cell lysates immunoprecipitated with anti-Flag or anti-HA antibodies, immunoblot. In general terms: A western blot detects proteins with antibodies after separation by electrophoresis.
The next experiment concerns the target Flag-HIF2α (1-174 aa) (UniProt Q99814). The experiment is described as above.
The target of experiment [2] is Flag-HIF2α (hypoxia-inducible factor 2α) (UniProt Q99814). The experiment is described as above.
For a further experiment, the target named is GST-USP7 (1–206 aa) (UniProt Q93009). Nature of the experiment: pull-down; GST pull-down with recombinant GST-USP7 (1–206 aa) and lysates of 293T cells expressing Flag-HIF2α (1-174 aa); immunoblot; only the target purified.
A further experiment concerns the target Flag-USP7 (1-206 aa) (UniProt Q93009). In words: co-IP; 293T cells co-transfected with Flag- and HA-tagged constructs; cell lysates immunoprecipitated with anti-Flag or anti-HA antibodies, immunoblot.
Experiment [3] concerns the target endogenous USP7 (human (endogenous in OS-RC-2 and 786-O)) (UniProt Q93009). Nature of the experiment: co-IP; lysates of OS-RC-2 or 786-O cells immunoprecipitated with antibodies against USP7; HIF2α detected by immunoblot.

These are yes or no findings as the source states them, for the method shown. Binding seen in cells or lysates may run through a third protein. Some binding calls cover weakened binding; strength is not graded here.

For “Flag-HIF2α (hypoxia-inducible factor 2α) (from UniProt Q99814 1-870)”, the binding entry in experiment [1] is given as “binds”.

For “HA-USP7 (Ubiquitin-Specific Peptidase 7) (from UniProt Q93009 1-1102) (enzyme)”, the binding entry (with Flag-HIF2α (1-174 aa); in experiment [2]) was “binds” in each case.

In the case of “Flag-HIF2α (1-174 aa) (from UniProt Q99814 1-174) (domain or fragment)”, the binding result with GST-USP7 (1–206 aa) was “binds”.

With HA-HIF2α (from UniProt Q99814 1-870), the binding result with Flag-USP7 (1-206 aa) is recorded as “binds”.

On to “endogenous HIF2α (from UniProt Q99814 1-870)”, for which the binding entry in experiment [3] is “binds”.
